For assay [1], the target named is T1, FBF-2 RBD protein (residue 164–575) (C. elegans) (UniProt Q09312).
T1 sequence: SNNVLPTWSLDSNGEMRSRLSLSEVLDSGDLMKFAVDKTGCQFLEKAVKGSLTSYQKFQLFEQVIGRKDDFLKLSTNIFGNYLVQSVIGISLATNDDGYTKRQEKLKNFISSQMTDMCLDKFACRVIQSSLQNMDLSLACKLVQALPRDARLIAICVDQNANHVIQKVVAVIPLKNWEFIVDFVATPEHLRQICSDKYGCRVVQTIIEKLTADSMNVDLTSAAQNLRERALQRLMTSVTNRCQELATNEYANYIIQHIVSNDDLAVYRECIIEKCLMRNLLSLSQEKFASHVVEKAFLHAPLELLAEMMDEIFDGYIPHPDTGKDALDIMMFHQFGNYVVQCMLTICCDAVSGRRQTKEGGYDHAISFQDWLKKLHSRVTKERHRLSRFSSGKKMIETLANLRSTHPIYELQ
Kind of assay: condition: LST-1 100–400 μM in the syringe, FBF-2 10–30 μM in the cell; ITC; LST-1 (100–400 μM) titrated from the syringe into the cell containing FBF-2 (10–30 μM); 20 °C; 20 mM HEPES pH 7.4, 150 mM NaCl, 0.5 mM TCEP; no RNA; one-site model; two technical replicates; both purified.

Assay [2] concerns the target T2, C. elegans FBF-2 RBD+CT (residues 164–632) (C. elegans) (UniProt Q09312).
T2 sequence: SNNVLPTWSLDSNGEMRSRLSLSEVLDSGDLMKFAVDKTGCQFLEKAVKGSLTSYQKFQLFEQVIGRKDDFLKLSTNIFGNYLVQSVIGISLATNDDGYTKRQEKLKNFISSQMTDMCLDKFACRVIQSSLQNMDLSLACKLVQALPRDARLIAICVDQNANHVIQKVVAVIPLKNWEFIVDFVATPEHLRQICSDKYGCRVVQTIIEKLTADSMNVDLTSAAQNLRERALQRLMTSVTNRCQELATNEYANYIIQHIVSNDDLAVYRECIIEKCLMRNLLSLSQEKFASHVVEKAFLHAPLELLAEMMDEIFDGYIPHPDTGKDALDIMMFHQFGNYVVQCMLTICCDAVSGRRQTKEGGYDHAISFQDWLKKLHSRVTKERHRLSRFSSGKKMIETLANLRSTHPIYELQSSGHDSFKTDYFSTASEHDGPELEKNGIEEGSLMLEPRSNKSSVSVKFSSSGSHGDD
Described as above.

These are yes or no findings as the source states them, for the method shown.

B1: LST-1^19-98(A^mB^m) (domain or fragment, UniProt P91820 19-98)
chain: STIAYSKSQHEAPAQLAQLRSEIKPLIPLNQPSNFWESSQDSGVLSSLSSSPQQRSGLRSQALHATAIEKNKRVRAMIPQ
In the case of B1, the binding result in assay [1] and in assay [2] was “no binding” in each case.

The values above are taken from publication doi:10.1101/2024.06.14.599074, “A higher order PUF complex is central to regulation of C. elegans germline stem cells” (bioRxiv, 2024).
